No constants are given. Whether binding was seen depends on the method and setting. In cells and extracts the contact can be indirect. Some entries that bind do so weakly or less than the wild type.
What was measured:
[1] = biological target: protein arginine methyltransferase 1 (PRMT1), endogenous (human (endogenous in LIU-LSC-1)) (UniProt Q99873); experiment: co-IP; endogenous proteins in LIU-LSC-1 lysate; PRMT1, SMARCC1 or IgG antibodies on protein G beads, overnight at 4 °C, three washes, immunoblot; also in cells transfected for 48 h with siRNA against SMARCA4, BRD7, SMARCD3, SMARCE1 or siNC
[2] = biological target: SWI/SNF related, matrix associated, actin dependent regulator of chromatin subfamily C member 1 (SMARCC1), endogenous (human (endogenous in LIU-LSC-1)) (UniProt Q92922); experiment: as above

Amino acid sequences for entries named in this document (tags omitted).
UniProt Q99873: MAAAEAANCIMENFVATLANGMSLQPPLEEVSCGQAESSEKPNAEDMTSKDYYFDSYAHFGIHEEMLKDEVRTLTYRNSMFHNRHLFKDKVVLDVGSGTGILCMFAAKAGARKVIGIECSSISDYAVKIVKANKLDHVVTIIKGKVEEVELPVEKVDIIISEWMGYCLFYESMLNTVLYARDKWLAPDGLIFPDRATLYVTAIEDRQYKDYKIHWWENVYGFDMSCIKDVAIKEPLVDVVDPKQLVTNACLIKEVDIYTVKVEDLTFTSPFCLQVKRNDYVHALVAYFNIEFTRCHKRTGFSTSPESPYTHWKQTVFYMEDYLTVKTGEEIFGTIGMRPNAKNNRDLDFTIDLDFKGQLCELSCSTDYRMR
UniProt Q92922: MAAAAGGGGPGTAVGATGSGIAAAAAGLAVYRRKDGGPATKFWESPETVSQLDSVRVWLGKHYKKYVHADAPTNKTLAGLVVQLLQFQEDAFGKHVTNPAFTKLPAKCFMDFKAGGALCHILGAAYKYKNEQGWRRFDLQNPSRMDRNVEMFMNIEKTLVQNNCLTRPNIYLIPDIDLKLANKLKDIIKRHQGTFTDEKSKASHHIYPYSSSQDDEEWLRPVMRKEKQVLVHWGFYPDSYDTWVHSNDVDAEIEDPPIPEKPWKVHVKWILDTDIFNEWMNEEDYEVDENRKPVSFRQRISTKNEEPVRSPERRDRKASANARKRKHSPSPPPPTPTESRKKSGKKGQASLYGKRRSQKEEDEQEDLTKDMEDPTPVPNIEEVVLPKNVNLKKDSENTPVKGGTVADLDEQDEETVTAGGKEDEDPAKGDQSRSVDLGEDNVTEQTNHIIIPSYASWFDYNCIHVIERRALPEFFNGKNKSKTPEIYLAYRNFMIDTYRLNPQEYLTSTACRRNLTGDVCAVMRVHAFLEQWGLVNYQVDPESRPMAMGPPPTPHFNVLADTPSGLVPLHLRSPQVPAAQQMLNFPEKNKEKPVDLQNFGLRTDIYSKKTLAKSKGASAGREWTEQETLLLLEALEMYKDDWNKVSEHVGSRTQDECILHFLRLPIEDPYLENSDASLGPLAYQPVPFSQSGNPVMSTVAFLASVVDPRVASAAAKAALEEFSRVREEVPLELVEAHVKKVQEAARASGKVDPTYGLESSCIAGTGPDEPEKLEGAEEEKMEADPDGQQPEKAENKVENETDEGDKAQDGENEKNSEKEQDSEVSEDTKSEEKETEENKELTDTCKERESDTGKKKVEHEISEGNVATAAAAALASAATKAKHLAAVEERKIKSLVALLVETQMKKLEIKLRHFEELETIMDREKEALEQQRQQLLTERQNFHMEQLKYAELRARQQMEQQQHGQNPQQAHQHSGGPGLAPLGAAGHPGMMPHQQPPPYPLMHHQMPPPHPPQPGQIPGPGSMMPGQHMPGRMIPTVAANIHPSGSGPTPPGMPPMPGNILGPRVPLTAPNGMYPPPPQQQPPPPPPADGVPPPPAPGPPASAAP

Row | binding [1] | binding [2] | Substance
1 | binds | – | SWI/SNF related, matrix associated, actin dependent regulator of chromatin subfamily C member 1 (SMARCC1), endogenous (from UniProt Q92922 1-1105)
2 | – | binds | protein arginine methyltransferase 1 (PRMT1), endogenous (from UniProt Q99873 1-371)

Source: paper PMC12165065
